# Experimental data published in the supplement of paper PMC5949888.
# Most values lie at the floor of the assay. Slopes are relative: functional sequences can read slightly below zero.
# Tested on: Saccharomyces cerevisiae PS128 hsf1 delta, HSF1(1-493) fusion
# Assay: growth estimate (transactivation domain function in HSF1 fusion, heat-shock survival) (a.u. (slope of normalised read count over time)); higher = stronger growth at 37°C, i.e. more transactivation activity
# Conditions: library: random library
row,Substance,growth estimate
1,LCTGRWTHRST,< -0.25
2,VTVPV,< -0.25
3,FNTT,< -0.25
4,GRTWWHGSNIISVSANTLDL,< -0.25
5,VMALPLVTNWFLRPPRQAIR,< -0.25
6,TYEKTQ,< -0.25
7,PEGGCLALALIRCGLSLLRH,< -0.25
8,HCGMRA,< -0.25
9,YVW,< -0.25
10,PRRAHKIATVTFGSDALSPA,< -0.25
11,CIVGQACPKWQKTILDLGCP,< -0.25
12,PIQISGRAACLYQSRASLSS,< -0.25
13,RRPRFQFRGAYFRLGRQSPS,< -0.25
14,WPRGVQYPVNRAYYGNGSHV,< -0.25
15,YCNFSMTTVQVGAGVPWNGL,< -0.25
16,IYVPGRVEGPVALCGR,< -0.25
17,RVRSGLT,-0.239
18,RVQDEGPVIRSASADSASRG,< -0.25
19,KLREDDMGGTV,< -0.25
20,RGVRKSRRIRVLVNCRYAQW,-0.239
21,TLIFVSPRLDKIIPR,< -0.25
22,TTDSHTERRTRC,< -0.25
23,VDFNPDRSVDNSLRSPDSPC,< -0.25
24,GQAGHSWFMAPVSHAFSTPN,-0.241
25,FQAPTWLEGYTSRSADFYQR,< -0.25
26,AWDAGAVGRNLTLHVVRLKS,< -0.25

row,Substance,growth estimate
1,YHLRKWTPAVVSGARAVGRD,< -0.25
2,LEVHGRFPIGSCGSIPFTVV,< -0.25
3,ISRAATRVQRTCPNCLTTIA,-0.246
4,VRIARERTTSLNDMD,< -0.25
5,NREYCCVREYCREALNGVAP,< -0.25
6,QRCFPVIRSDYQLVEDL,< -0.25
7,PGPPPSSACDHRPV,< -0.25
8,RSWPIAPGLQQ,< -0.25
9,IWD,< -0.25
10,TQLGGLDYSLRTKGTHTIIG,< -0.25
11,VSEKRRRVVSLAFDKTRGIG,< -0.25
12,GGPVRFREAEKKYLDPA,< -0.25
13,ARVCAGDTWHLL,< -0.25
14,SQRGVTINRESETPLMCTTN,< -0.25
15,TYQLEGGVLRILQK,< -0.25
16,IGAERILDSTLRVNGLQSGS,< -0.25
17,MSF,< -0.25
18,RWSTLNFRS,< -0.25
19,TVEAPQCNDYDEVARAYLGR,< -0.25
20,GGTRLNA,< -0.25
21,GDVSLGVLIRTSP,< -0.25
22,YVTPHMREMFSNNHTKWTVQ,< -0.25
23,PLCKRVDIHALPFNSYPDRT,< -0.25
24,VTSEI,< -0.25
25,ELRIYLPKIKR,< -0.25
26,ETYDIRTLRGILKRTCCNPR,< -0.25

row,Substance,growth estimate
1,GETRRTARLTSGLVEIYALE,< -0.25
2,CFPGSCRQIGPPRGGSNGCP,< -0.25
3,RVVPRA,0.0482
4,ENRPLG,< -0.25
5,RYERDPMSRAYRFFVGSHLA,< -0.25
6,LCQVCAFLRWILSC,< -0.25
7,AGYYSLARRKL,< -0.25
8,GEPPTLRWRYVFGLA,< -0.25
9,PCSALYTSSRVSQEINFFNP,< -0.25
10,CNPKARCEPKVPSTV,< -0.25
11,TYLTQRCMSGQVGYA,< -0.25
12,SRAAST,< -0.25
13,GHPGGGGGAQGGTRSIFSVP,< -0.25
14,WTEDLNALHIGSGG,< -0.25
15,DLGYS,< -0.25
16,PGISLWALSV,< -0.25
17,ELHYTMRIGGR,< -0.25
18,RVGWDSSPGALTVYSHRWTP,< -0.25
19,NESQLSGSLRAYVGALAKSG,< -0.25
20,GNQAGVDPRYMVFSWYERCF,< -0.25
21,VHLLLPVGSKLKEWTEDSSV,< -0.25
22,VTGWCIGNY,< -0.25
23,YTTGCRTQSRCGCLPP,< -0.25
24,YSRLGSVFLLSTIDVSVNRD,< -0.25
25,SIEGLQTRWGTQPLLIYSVA,-0.246
26,WQTGLEGTCNRVSLTHVSIR,< -0.25

row,Substance,growth estimate
1,SSARKQNTLVPD,< -0.25
2,NRQGEGK,< -0.25
3,NLARVYPEAQEYKYFGHSAE,< -0.25
4,GLPPFQLKAMLLTDPIVCCA,< -0.25
5,RYRDHVHF,< -0.25
6,TNAQVSI,< -0.25
7,VRRCHGDHPGQPVLYVTSPI,< -0.25
8,ESITCTVSRGGDISTYVVSS,< -0.25
9,LGRSSFSLEHLLEQQ,< -0.25
10,DLSHADSTGVRRCRRRRHMS,< -0.25
11,TLAMHARCAKRAGNIVVSAN,< -0.25
12,TVIAGSAKSTGAR,< -0.25
13,RDYLADHSEIITLRRPWRRP,< -0.25
14,PHPSHRDCWAVGQIVLRAWI,< -0.25
15,SEQLSAEPARVSDLCMVLAS,< -0.25
16,DAQSISAHRLHNPG,-0.245
17,TATNAELPSDSSTHKLL,< -0.25
18,GGVAG,0.0119
19,SWAKRWMRIVYSIRGPVMTT,< -0.25
20,RPCRNDPGLC,< -0.25
21,PKND,< -0.25
22,GSACGPLEYGLLFRLCRLRP,< -0.25
23,PSLSSSCV,< -0.25
24,STTAQTS,< -0.25
25,QHLETSYRKICVPRSGLGQV,< -0.25
26,EIYQTRWLRELVGSTVRFSR,< -0.25

row,Substance,growth estimate
1,VLHGGPQGGTASLGRPSGLL,< -0.25
2,GGHRPPSSRRLYYEQCNLHR,< -0.25
3,CDVDGF,< -0.25
4,FGLVKAYLGLISRRICKIEW,< -0.25
5,VLLS,-0.0823
6,TVSEDQGCIDIRALPRGWRL,< -0.25
7,LISVTG,< -0.25
8,LTRIVSLIGKDPELKQL,-0.205
9,VSSERALGGTLSEQGQGYGD,< -0.25
10,LWGANHAVGGNRGVSIVSLY,< -0.25
11,AHYGTHVSWSAYAGFVITLW,< -0.25
12,LARIFSRVP,0.0282
13,VSGSTGRAGRGIRRISIIGR,< -0.25
14,LMELSRSTYRPCATLLVFY,< -0.25
15,RGTIKIVQKVVMLRQIVQLT,-0.246
16,IQLHHTTYNWGVPLRGLYKQ,< -0.25
17,RGVEDLLVGLTQIIGRPV,< -0.25
18,TRKPLGLFCPEIEVPGEVWN,< -0.25
19,TRADQEQRSLFGVLE,< -0.25
20,QSIRTALGVVKSLGAEVWAQ,< -0.25
21,RYKARGIHERAENVIPMGLR,< -0.25
22,RSGSDVLRSVLGLWYLV,< -0.25
23,ISW,< -0.25
24,PTQRGFSSQG,< -0.25
25,HWAAISTTIRIPACSERAAG,< -0.25
26,GESVIRFFRVGLVGCHIGHS,< -0.25

# Laid out differently: entries from further up
row | Substance | growth estimate
10 | LWGANHAVGGNRGVSIVSLY | < -0.25
11 | AHYGTHVSWSAYAGFVITLW | < -0.25
14 | LMELSRSTYRPCATLLVFY | < -0.25
18 | TRKPLGLFCPEIEVPGEVWN | < -0.25
22 | RSGSDVLRSVLGLWYLV | < -0.25

# Next results:

row,Substance,growth estimate
1,AQSLLIGTARVVGEWAQGKD,< -0.25
2,RSICRLKRKEKDRDPGCEGA,< -0.25
3,QIVEMANKRLRFVSRHKGER,< -0.25
4,ITPRLTTRVTWLGYGHSRRV,< -0.25
5,SSRRERRASSIKRNERLSSA,< -0.25
6,VEASCSHPDGGLGGDRIVQQ,< -0.25
7,GLVKSAGDHLDIMFAG,< -0.25
8,LQLAPRGKSIYS,< -0.25
9,DRLTCIESNRGPGITD,< -0.25
10,GWATRHGGTESLVRT,< -0.25
11,LTAFSGVQDQNFRDLSKNP,< -0.25
12,RQTGVLFLRPSIRIYGDSQA,< -0.25
13,LLGYLRGPDKDVCSIVGHKH,< -0.25
14,GLCTRPAADTGMKSHFSR,-0.248
15,SLGSDPCDPQRMRGILRCTI,< -0.25
16,WSGICPVGGVWRGPRWTPWR,< -0.25
17,KSTLAGRPFGSKR,< -0.25
18,KLGDYMVKPTGDPSRAHSAV,< -0.25
19,MFLLVGLGRVVGWALAVLSA,< -0.25
20,TLVTAAVGIRKPKMPG,< -0.25
21,HRIVTFAIT,< -0.25
22,QRCSGSHSGNDYKGKNSILP,-0.243
23,REYSTSS,< -0.25
24,AGRGCLGLRRNICVFTAVRL,< -0.25
